Part of at least one peptide drawing is inferred or uncertain, most often the ends. Peptide text beside a SMILES is read from it.
Experiments:
Type in all cases: cell-based, human
basophils = test: Inhibition by RGD peptide of histamine release caused by anti-IgE antibody; conditions: anti-IgE antibody 2.5 µg/ml; RGD 0.3, 1 and 3 mg/ml; release without RGD taken as 100%; Fig. 6
[1] = test system: basophilic cells of patients who presented positive results to both the cedar pollen allergen and mite allergen; test: Inhibition by peptide of histamine release caused by mite body extract (MBE); conditions: MBE 0.1 µg/ml; blood of patients RAST positive against mite and cedar allergens; Fig. 5
[2] = test system: bosophils of patients suffering from pollinosis of Japanese cedar; test: Inhibition by peptide of the histamine release reaction using Cryj I; conditions: for inhibitory action against the release of histamine: co-existence of Cryj I, cedar pollinosis patient blood; for inhibitory action against the release of histamine / histamine release when Cry j I was not present: Fig. 4; for histamine release when Cry j I was not present: no Cry j I, peptide 0.1 mg/ml to 3.0 mg/ml; for amount of released histamine with peptide added: Cryj I plus peptide, group of cedar-pollinosis patients, % of total blood histamine, Table 1

Compound: N=C(N)NCCC[C@H](N)C(=O)NCC(=O)N[C@@H](CC(=O)O)C(=O)O [RGD peptide]
- amount of histamine release caused by anti-IgE antibody (basophils): the amount of histamine release was inhibited
- histamine release caused by MBE [1]: suppressed histamine release depending on the concentration of RGD peptide
- histamine release caused by Cryj I ([2]; Cryj I 50 µg/ml, blood of patients RAST positive against mite and cedar allergens, Fig. 5): suppressed histamine release depending on the concentration of RGD peptide
- inhibitory action against the release of histamine [2]: almost the same level of inhibitory action
- histamine release when Cry j I was not present [2]: scarcely observed

Compound: N=C(N)NCCC[C@H](N)C(=O)NCC(=O)N[C@@H](CC(=O)O)C(=O)N[C@@H](CO)C(=O)O [RGDS peptide, Arg-Gly-Asp-Ser]
- amount of released histamine with peptide added [2]: 2.91%
- inhibition rate of histamine release in comparison to the peptide-free system ([2]; RGDS peptide 1.0 µg/ml, Cryj I 50 µg/ml, cedar-pollinosis patient blood, Fig. 3): approximately 60%
- inhibitory action against the release of histamine [2]: almost the same level of inhibitory action
- histamine release when Cry j I was not present [2]: scarcely observed
- histamine release when Cryj I was not present ([2]; no Cryj I, RGDS peptide 0.1 mg/ml to 1.0 mg/ml, Fig. 3): scarcely observed

Compound: C[C@H](N)C(=O)N[C@@H](CC(N)=O)C(=O)N[C@@H](CCC(N)=O)C(=O)N[C@@H](CC(N)=O)C(=O)N[C@H](C(=O)N[C@@H](CCCCN)C(=O)N[C@H](C(=O)N[C@@H](C)C(=O)N[C@@H](CCCCN)C(=O)O)[C@@H](C)O)[C@@H](C)O [partial peptide of Der p II, Ala-Asn-Gln-Asn-Thr-Lys-Thr-Ala-Lys, reference compound] (H-ANQNTKTAK-OH)
- amount of released histamine with peptide added [2]: 59.60%

From patent publication EP0679403A1, “PREVENTIVE AND REMEDY FOR ALLERGIC DISEASE” (MEIJI MILK PRODUCTS COMPANY LIMITED, priority 1993, dated 1995)
